Data on twelve sequences can be found in publication PMC7070575, “Novel Blood–Brain Barrier Shuttle Peptides Discovered through the Phage Display Method” (Molecules, 2020).

The amount applied is not stated for every result.

The data set concerns primary rat brain endothelial cells. Description: Phage display bio-panning on primary rat brain endothelial cells (after subtraction on SH-SY5Y). It is filed as cell-based. As to conditions: occurrence among 35 phage clones randomly chosen and sequenced after the fourth round of bio-panning; Ph.D.-12 library.
In the case of APTAYNKNDWAL [1.7], the Frequency is on record as 1/35.
The result for AYPQKFNNNFMS [1.5] reads 1/35; that for GSWGLNDSSAAY [1.11], 2/35.
The result for HAEHSQVRGAAN [1.4] reads 1/35; that for HASGSISGFWPN [1.12], 1/35.
Turning to IDLRPKDDLPQP [1.9], the Frequency is listed as 2/35.
As for IEASFYDAPRGG [1.10], the Frequency was 1/35.
As for IGVRGCIWDPQP [1.1], the Frequency was 1/35.
Then LNTNSQLQTNNA [1.14], with 2/35; and NRPDSAQFWLHH [1.8], with 1/35.
The result for VIGPLDRHAHLK [1.6] reads 2/35.
The result for VNMVPIGGNQVV [1.13] reads 1/35.
